For one substance, binding results are on record in publication PMC10755771.

Sequences of proteins named here, by UniProt entry; tags and fusion partners are left off. A change or cut given only in a name is not applied to a line headed by its entry.
UniProt Q92783: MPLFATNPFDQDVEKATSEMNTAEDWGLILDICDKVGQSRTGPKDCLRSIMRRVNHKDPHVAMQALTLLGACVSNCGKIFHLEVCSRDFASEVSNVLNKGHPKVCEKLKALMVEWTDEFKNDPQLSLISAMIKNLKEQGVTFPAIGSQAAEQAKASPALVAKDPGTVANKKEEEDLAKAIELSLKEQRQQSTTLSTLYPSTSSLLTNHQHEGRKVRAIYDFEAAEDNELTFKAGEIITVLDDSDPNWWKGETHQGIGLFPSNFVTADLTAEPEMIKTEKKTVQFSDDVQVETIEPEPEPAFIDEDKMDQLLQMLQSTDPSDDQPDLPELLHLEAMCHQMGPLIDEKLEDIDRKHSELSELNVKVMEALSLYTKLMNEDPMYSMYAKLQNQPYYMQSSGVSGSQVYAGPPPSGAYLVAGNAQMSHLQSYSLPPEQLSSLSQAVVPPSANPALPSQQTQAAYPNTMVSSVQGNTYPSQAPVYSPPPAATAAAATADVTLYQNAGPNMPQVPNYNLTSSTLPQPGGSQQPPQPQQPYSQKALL
UniProt P49407: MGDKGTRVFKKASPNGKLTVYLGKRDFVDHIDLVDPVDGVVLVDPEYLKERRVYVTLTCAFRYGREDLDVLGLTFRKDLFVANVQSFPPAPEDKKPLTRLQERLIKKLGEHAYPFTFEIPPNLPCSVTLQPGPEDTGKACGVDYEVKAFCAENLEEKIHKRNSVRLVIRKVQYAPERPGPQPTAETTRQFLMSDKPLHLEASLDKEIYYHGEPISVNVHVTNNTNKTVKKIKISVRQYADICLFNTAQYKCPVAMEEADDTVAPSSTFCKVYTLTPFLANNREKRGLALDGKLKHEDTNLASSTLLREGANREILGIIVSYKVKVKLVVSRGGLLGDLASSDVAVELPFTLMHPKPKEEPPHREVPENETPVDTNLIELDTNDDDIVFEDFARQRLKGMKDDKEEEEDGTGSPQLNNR

Experiment [1] addresses Rluc8-STAM1-K136R (UniProt Q92783). The experiment can be described thus: FRET or BRET; HEK293 cells cotransfected with FLAG-CXCR4, Rluc8-STAM1 (WT or K136R; donor) and βarr1-GFP10 (acceptor); stimulated with increasing concentrations of CXCL12; DeepBlueC substrate; net BRET. (In BRET a luciferase serves as donor, and the signal depends on an acceptor being close.)
Experiment [2] concerns the target Rluc8-STAM1 (wild type) (UniProt Q92783). Described as above.

Results are given in words; binding and its absence hold for the method and conditions named. In cells and extracts the contact can be indirect. Some entries that bind do so weakly or less than the wild type.

Consider βarr1-GFP10 (from UniProt P49407 1-418), for which the binding entry in experiment [1] and in experiment [2] was “binds” each time.
